According to patent US20040009973A1, “Novel potassium channels modulators” (4SC AG, priority 2002, published 2004):
For at least one compound, name, drawing or mass did not settle the structure.

Chains of the proteins cited; added tags and fusions are not shown. Residues count along the entry.
UniProt Q12791, 1-1178 isoform Q12791-5: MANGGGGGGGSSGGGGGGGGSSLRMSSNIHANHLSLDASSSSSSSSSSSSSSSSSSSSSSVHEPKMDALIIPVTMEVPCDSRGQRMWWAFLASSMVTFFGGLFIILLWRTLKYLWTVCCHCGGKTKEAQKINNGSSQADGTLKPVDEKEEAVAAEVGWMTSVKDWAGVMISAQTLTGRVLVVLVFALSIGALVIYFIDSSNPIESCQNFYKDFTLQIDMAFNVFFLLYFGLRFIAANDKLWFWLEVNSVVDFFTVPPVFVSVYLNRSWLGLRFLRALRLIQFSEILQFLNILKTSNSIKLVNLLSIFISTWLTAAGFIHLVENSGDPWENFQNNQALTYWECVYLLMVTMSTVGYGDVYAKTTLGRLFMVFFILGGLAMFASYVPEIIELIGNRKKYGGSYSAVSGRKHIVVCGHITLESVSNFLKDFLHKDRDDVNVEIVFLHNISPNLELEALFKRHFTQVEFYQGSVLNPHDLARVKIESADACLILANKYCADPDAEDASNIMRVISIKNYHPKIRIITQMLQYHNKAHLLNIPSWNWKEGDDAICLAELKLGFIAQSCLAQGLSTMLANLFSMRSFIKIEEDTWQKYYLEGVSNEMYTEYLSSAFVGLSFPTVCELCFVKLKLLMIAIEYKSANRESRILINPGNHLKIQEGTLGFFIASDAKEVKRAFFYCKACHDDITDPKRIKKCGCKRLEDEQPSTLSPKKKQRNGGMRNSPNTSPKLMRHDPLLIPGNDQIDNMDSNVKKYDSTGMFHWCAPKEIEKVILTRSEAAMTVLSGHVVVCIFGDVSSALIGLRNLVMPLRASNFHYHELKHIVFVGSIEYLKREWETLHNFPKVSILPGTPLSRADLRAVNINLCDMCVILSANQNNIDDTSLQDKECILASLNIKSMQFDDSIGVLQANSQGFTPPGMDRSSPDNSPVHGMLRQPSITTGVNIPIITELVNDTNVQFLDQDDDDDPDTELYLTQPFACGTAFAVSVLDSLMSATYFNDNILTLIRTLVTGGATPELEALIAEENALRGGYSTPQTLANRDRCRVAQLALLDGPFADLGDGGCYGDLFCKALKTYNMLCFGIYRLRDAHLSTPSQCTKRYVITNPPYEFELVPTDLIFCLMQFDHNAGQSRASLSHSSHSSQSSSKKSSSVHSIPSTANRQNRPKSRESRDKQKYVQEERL

Target: T1, BK potassium channel, cloned hSlo (α-hSlo and β-bSlo) in CHO cells (Homo sapiens, UniProt Q12791)
T1 construct: expressed in transfected cells; host or cells: CHO cells, permanently transfected
Test: Em-Assay: membrane potential with voltage sensitive dye DiBAC(4)3, fluorescence plate reader
Assay type: cell-based
Settings: compound 50 μM; NS004 25 or 50 μM; hSlo transfected CHO cells; change in DiBAC(4)3 fluorescence intensity
Description: The large conductance, voltage-dependent and Ca^2+-activated potassium channel BK is a potassium selective ion channel and belongs to the subfamily of KCa channels. Four BK alpha-subunits form a functional channel that can be regulated by intracellular Ca^2+ concentration, membrane voltage, and other mechanisms like phosphorylation states or beta subunits. To test the biological activity of the compounds, we applied two different techniques, a fluorescence based assay using a voltage sensitive dye (Em-Assay) as well as exploiting electrophysiological methods. […]
To determine changes in the membrane potential of the cells we used the voltage sensitive dye DiBAC(4)3 (Molecular Probes) in a kinetic assay system using a fluorescent plate reader (Manning and Sontheimer, J. Neurosci, Meth., 91: 73-81 (1999). The anionic bis-oxonol DiBAC(4)3 is a voltage sensitive dye which partitions from the extracellular environment into the cell where it reversibly binds to intracellular proteins, a kinetic process depending on the membrane potential of the cell. At depolarised potentials (i.e. at a reduced K^+ efflux due to blocked K^+ channels) the dye accumulates in the cell leading to an increased fluorescence intensity, due to its increased fluorescence if bound to cellular proteins. […]

Fc1cccc(Cl)c1CNc1cc(NCc2c(F)cccc2Cl)cc(C(F)(F)F)c1 [Compound 72]
Em effect: ratio of the compound effect compared to the maximal effect of NS004: + (0-1 = +)
